The list shows a part of the results.
Tests used:
Assay in all cases: glycan array binding signal (z-score within array); higher = stronger binding
Details in all cases: glycan notation: IUPAC condensed, linker removed
[1] = target: Gal(b1-4)GlcNAc(b1-3)Gal(b1-4)GlcNAc(b1-6)[Gal(b1-3)]GalNAc
Summary of the method: (§1)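 Columns mapping to the same glycan were averaged after glycan names were converted to IUPAC-condensed notation. The data come from 3228 arrays in the Consortium for Functional Glycomics database, limited to those with an available protein sequence. Binding is reported as a within-array Z-score averaged across arrays of one protein sequence and across linkers.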

[2] = target: Gal(b1-4)GlcNAc(b1-3)Gal(b1-4)[Fuc(a1-3)]GlcNAc(b1-3)Gal(b1-4)[Fuc(a1-3)]GlcNAc
Summary of the method: as §1

[3] = target: Gal(b1-4)GlcNAc(b1-3)GalNAc
Summary of the method: as §1

[4] = target: Gal(b1-4)GlcNAc(b1-3)[Fuc(a1-3)GlcNAc(b1-6)]Gal(b1-4)Glc
Summary of the method: as §1

[5] = target: Gal(b1-4)GlcNAc(b1-3)[Gal(b1-4)GlcNAc(b1-6)]Gal(b1-4)GlcNAc
Summary of the method: as §1

[6] = target: Gal(b1-4)GlcNAc(b1-3)[GlcNAc(b1-6)]Gal(b1-4)GlcNAc
Summary of the method: as §1

[7] = target: Gal(b1-4)GlcNAc(b1-6)Gal(b1-4)GlcNAc
Summary of the method: as §1

[8] = target: Gal(b1-4)GlcNAc(b1-6)GalNAc
Summary of the method: as §1

[9] = target: Gal(b1-4)GlcNAc(b1-6)[Gal(b1-3)]GalNAc
Summary of the method: as §1

[10] = target: Gal(b1-4)GlcNAc(b1-6)[Gal(b1-4)GlcNAc(b1-3)]GalNAc
Summary of the method: as §1

Gal(b1-4)GlcNAc6P = target: Gal(b1-4)GlcNAc6P
Summary of the method: as §1

Gal(b1-6)Gal = target: Gal(b1-6)Gal
Summary of the method: as §1

Gal3S(b1-3)GalNAc = target: Gal3S(b1-3)GalNAc
Summary of the method: as §1

Gal3S(b1-3)GlcNAc = target: Gal3S(b1-3)GlcNAc
Summary of the method: as §1

[11] = target: Gal3S(b1-3)[Fuc(a1-4)]GlcNAc
Summary of the method: as §1

Gal3S(b1-4)Glc = target: Gal3S(b1-4)Glc
Summary of the method: as §1

Gal3S(b1-4)Glc6S = target: Gal3S(b1-4)Glc6S
Summary of the method: as §1

Gal3S(b1-4)GlcNAc = target: Gal3S(b1-4)GlcNAc
Summary of the method: as §1

[12] = target: Gal3S(b1-4)[Fuc(a1-3)]Glc6S
Summary of the method: as §1

[13] = target: Gal3S(b1-4)[Fuc(a1-3)]GlcNAc
Summary of the method: as §1

[14] = target: Gal3S(b1-4)[Fuc(a1-3)]GlcNAc6S
Summary of the method: as §1

Gal3S4S(b1-4)GlcNAc = target: Gal3S4S(b1-4)GlcNAc
Summary of the method: as §1

Gal3S6S(b1-4)GlcNAc = target: Gal3S6S(b1-4)GlcNAc
Summary of the method: as §1

Gal3S6S(b1-4)GlcNAc6S = target: Gal3S6S(b1-4)GlcNAc6S
Summary of the method: as §1

Gal4S(b1-4)GlcNAc = target: Gal4S(b1-4)GlcNAc
Summary of the method: as §1

Gal4S6S(b1-4)GlcNAc = target: Gal4S6S(b1-4)GlcNAc
Summary of the method: as §1

Gal6P(b1-4)GlcNAc = target: Gal6P(b1-4)GlcNAc
Summary of the method: as §1

Gal6S(b1-3)GlcNAc = target: Gal6S(b1-3)GlcNAc
Summary of the method: as §1

Gal6S(b1-3)GlcNAc6S = target: Gal6S(b1-3)GlcNAc6S
Summary of the method: as §1

Gal6S(b1-4)Glc = target: Gal6S(b1-4)Glc
Summary of the method: as §1

Gal6S(b1-4)Glc6S = target: Gal6S(b1-4)Glc6S
Summary of the method: as §1

Gal6S(b1-4)GlcNAc = target: Gal6S(b1-4)GlcNAc
Summary of the method: as §1

Gal6S(b1-4)GlcNAc6S = target: Gal6S(b1-4)GlcNAc6S
Summary of the method: as §1

GalNAc(a1-3)Gal = target: GalNAc(a1-3)Gal
Summary of the method: as §1

GalNAc(a1-3)GalNAc = target: GalNAc(a1-3)GalNAc
Summary of the method: as §1

[15] = target: GalNAc(a1-3)GalNAc(b1-3)Gal(a1-4)Gal(b1-4)Glc
Summary of the method: as §1

[16] = target: GalNAc(a1-3)GalNAc(b1-3)Gal(a1-4)Gal(b1-4)GlcNAc
Summary of the method: as §1

GalNAc(b1-3)Gal = target: GalNAc(b1-3)Gal
Summary of the method: as §1

[17] = target: GalNAc(b1-3)Gal(a1-4)Gal(b1-4)GlcNAc
Summary of the method: as §1

[18] = target: GalNAc(b1-3)Gal(a1-4)Gal(b1-4)GlcNAc(b1-3)Gal(b1-4)Glc
Summary of the method: as §1

[19] = target: GalNAc(b1-3)Gal(a1-6)Gal(b1-4)Glc
Summary of the method: as §1

GalNAc(b1-3)GalNAc = target: GalNAc(b1-3)GalNAc
Summary of the method: as §1

GalNAc(b1-3)GlcNAc = target: GalNAc(b1-3)GlcNAc
Summary of the method: as §1

GalNAc(b1-4)Gal(b1-4)Glc = target: GalNAc(b1-4)Gal(b1-4)Glc
Summary of the method: as §1

GalNAc(b1-4)GlcNAc = target: GalNAc(b1-4)GlcNAc
Summary of the method: as §1

B1: Lb MiSSP8 (Laccaria bicolor) (protein)
chain: MYFHTLFACATLMLITTAHASPTVINSLDSRKADLNGDVEARHAADWRRDSDWRRDSDWRRDSDWRRDSD
glycan array binding signal (z-score) [1]: 0.423
glycan array binding signal (z-score) [2]: -0.695
glycan array binding signal (z-score) [3]: -0.833
glycan array binding signal (z-score) [4]: 0.236
glycan array binding signal (z-score) [5]: -0.129
glycan array binding signal (z-score) [6]: 1.9
glycan array binding signal (z-score) [7]: 0.085
glycan array binding signal (z-score) [8]: -0.433
glycan array binding signal (z-score) [9]: 1.32
glycan array binding signal (z-score) [10]: -0.799
glycan array binding signal (z-score) (Gal(b1-4)GlcNAc6P): -0.64
glycan array binding signal (z-score) (Gal(b1-6)Gal): -0.212
glycan array binding signal (z-score) (Gal3S(b1-3)GalNAc): 0.092
glycan array binding signal (z-score) (Gal3S(b1-3)GlcNAc): 0.154
glycan array binding signal (z-score) [11]: 0.409
glycan array binding signal (z-score) (Gal3S(b1-4)Glc): 0.63
glycan array binding signal (z-score) (Gal3S(b1-4)Glc6S): -0.129
glycan array binding signal (z-score) (Gal3S(b1-4)GlcNAc): 0.312
glycan array binding signal (z-score) [12]: 0.678
glycan array binding signal (z-score) [13]: 0.554
glycan array binding signal (z-score) [14]: 0.295
glycan array binding signal (z-score) (Gal3S4S(b1-4)GlcNAc): -0.771
glycan array binding signal (z-score) (Gal3S6S(b1-4)GlcNAc): -0.26
glycan array binding signal (z-score) (Gal3S6S(b1-4)GlcNAc6S): -0.613
glycan array binding signal (z-score) (Gal4S(b1-4)GlcNAc): -0.633
glycan array binding signal (z-score) (Gal4S6S(b1-4)GlcNAc): -0.73
glycan array binding signal (z-score) (Gal6P(b1-4)GlcNAc): -0.695
glycan array binding signal (z-score) (Gal6S(b1-3)GlcNAc): -0.502
glycan array binding signal (z-score) (Gal6S(b1-3)GlcNAc6S): -0.033
glycan array binding signal (z-score) (Gal6S(b1-4)Glc): -0.416
glycan array binding signal (z-score) (Gal6S(b1-4)Glc6S): -0.571
glycan array binding signal (z-score) (Gal6S(b1-4)GlcNAc): -0.613
glycan array binding signal (z-score) (Gal6S(b1-4)GlcNAc6S): -0.571
glycan array binding signal (z-score) (GalNAc(a1-3)Gal): -0.723
glycan array binding signal (z-score) (GalNAc(a1-3)GalNAc): -0.385
glycan array binding signal (z-score) [15]: -0.778
glycan array binding signal (z-score) [16]: 0.899
glycan array binding signal (z-score) (GalNAc(b1-3)Gal): 0.25
glycan array binding signal (z-score) [17]: 1.07
glycan array binding signal (z-score) [18]: 4.15
glycan array binding signal (z-score) [19]: -0.419
glycan array binding signal (z-score) (GalNAc(b1-3)GalNAc): -0.122
glycan array binding signal (z-score) (GalNAc(b1-3)GlcNAc): -0.399
glycan array binding signal (z-score) (GalNAc(b1-4)Gal(b1-4)Glc): -0.226
glycan array binding signal (z-score) (GalNAc(b1-4)GlcNAc): 1.03

From the supplement of paper PMC8728848
